The test system of one experiment is MDA-MB-231. Kind of experiment: MTT assay, MDA-MB-231 breast cancer cell line. Conditions: Homo sapiens; SAHA in MDA-MB-231. The experiment is classed as cell-based. On the procedure: The breast cancer cell lines shown in Table 2 were screened to determine the localization of the aryl hydrocarbon receptor (AhR) in accordance with the techniques discussed above. MTT assays were conducted to measure cell death on various breast cancer cell lines.
(§1) As shown below in Table 4, the genetic profile of 11 breast cancer cell lines was determined and each cell line was tested to determine the 50% inhibitory concentration (IC50) of aminoflavone. The inhibitory concentration 50% were determined by MTT assay and following the NCI DTP in vitro testing procedures (http://dtp.nci.nih.gov/branches/btb/ivclsp.html). Three independent MTT in vitro tumor cell growth inhibition experiments were conducted and a mean IC50 value generated as shown in Table 4.
(§2) Combination studies were performed according to the method by Chou and Talalay (see Chou, T. C., and Talalay, P. Quantitative analysis of dose-effect relationships: The combine effects of multiple drugs or enzyme inhibitors, Adv. Enzyme Regul., 22:27-55, 1984) at the fixed IC50 ratio by employing a range of 8 concentrations for each drug and determining growth by MTT assay. In one case, synergism of two agents exists if the combination indices at the effective (ED) doses 50, 75 or 90% are below 1, if they are 1, drugs are additive; above 1, drugs are antagonistic.

The next experiment has as its system Hs578t. Kind of experiment: MTT assay, Hs578t breast cancer cell line. The experiment is classed as cell-based. The conditions noted are these: Homo sapiens, Hs-578T; SAHA in Hs578T. Here is the method: as §1, §2
(In general: Tetrazolium assays rely on reduction of a dye to a coloured formazan, in cell work by metabolically active cells.)

Turning to `O=C(CCCCCCC(=O)Nc1ccccc1)NO` [SAHA, suberoylanilide hydroxamic acid], the IC50 with MDA-MB-231 was 2.5 µM; with Hs578t, 8 µM.

What is called IC50 is the concentration that inhibits the measured activity by half.
